In patent publication US20160289309A1:
No constants are given. Whether binding was seen depends on the method and setting. Binding calls can cover weak binding; strength is not graded here.

Molecular target: Tau in cerebrospinal fluid of cynomolgus monkeys (free Tau / extracellular Tau, eTau) (cynomolgus monkey (Macaca fascicularis))
Experiment: free-Tau ELISA on CSF of cynomolgus monkeys dosed with IPN002; the capture antibody competes with IPN002

B1: IPN002 (antibody, V domains shown)
VH: EVHLVESGGALVKPGGSLKLSCAASGFSFSKYGMSWVRQTPDKRLEWVATISSSGSRTYYPDSVKGQFTISRDNAKNTLYLQMSSLKSEDTAMYYCSISWDGAMDYWGQGTSVTVSS
VL: DVLMTQTPLSLPVSLGDQASISCKSSQSIVHSNGNTYLEWYLQKPGQSPKLLVYKVSNRFSGVPDRFSGSGSGTDFTLKISRVEAEDLGTYYCFQGSLVPWAFGGGTKLEIK
For B1, the binding was “binds”.
